Here are results for six compounds from the supplement of paper PMC11348887.

Counter-ions that a name gives are not always drawn. The list shows a part of the results. Most values lie at the level of the controls, where differences are scatter.

The test relates to hPSC-derived cortical neurons (WA09). As to the kind of experiment: KCl-induced FOS+/EGR-1+ double-positive nuclei fraction z-score (KCl minus unstimulated); higher = stronger activity-induced IEG response. Particulars: 5 µM; treatment: days 7-14 after plating, readout day 21.
In the case of `O=c1c(O)c(-c2ccc(O)c(O)c2)oc2cc(O)ccc12` [Fisetin], the “KCl-induced FOS+/EGR-1+ double-positive nuclei fraction z-score” value was 0.187.
As for `CC(C)(Oc1ccc(CCNC(=O)c2ccc(Cl)cc2)cc1)C(=O)O` [Bezafibrate], the figure is 0.00866.
For `COC(=O)C1=C(C)NC(C)=C(C(=O)OC2CCCN(Cc3ccccc3)C2)C1c1cccc([N+](=O)[O-])c1` (stereo unspecified) [Benidipine HCl], the “KCl-induced FOS+/EGR-1+ double-positive nuclei fraction z-score” value is -0.391.
Consider `CN(C)[C@@H]1C(O)=C(C(N)=O)C(=O)[C@@]2(O)C(O)=C3C(=O)c4c(O)cccc4[C@@](C)(O)[C@H]3[C@H](O)[C@@H]12` [Oxytetracycline Dihydrate], for which the “KCl-induced FOS+/EGR-1+ double-positive nuclei fraction z-score” value was determined as 0.839.
Then `CCn1cc(C(=O)O)c(=O)c2cc(F)c(N3CCNCC3)cc21` [Norfloxacin], with 0.513.
Then `c1ccc2c(c1)CCCC2C1=NCCN1` (stereo unspecified) [Tetrahydrozoline HCl], with -0.541.
